Patent US7981915B2, “Methods for modulating PPAR biological activity for the treatment of diseases caused by mutations in the CFTR gene” (Beth Israel Deaconess Medical Center, priority 2003, dated 2011)
At least one compound was matched to its structure with a doubt left.

Test system: PPARγ mRNA
Assay: PPARγ mRNA quantitative RT-PCR in colonic and ileal mucosa after rosiglitazone treatment
Type: in vivo
Conditions: WT and cftr−/− mice; 3 mg/kg by gavage once a day for 9 days

## CN(CCOc1ccc(CC2SC(=O)NC2=O)cc1)c1ccccn1 (stereo not shown) [rosiglitazone]
  PPARγ RNA expression in colonic and ileal mucosa compared to controls: did not increase RNA expression
